For the test, the target named is soluble serum stimulated 2 (sST2), the truncated, soluble form of ST2 (UniProt Q01638). As to the kind of experiment: AlphaScreen or HTRF; homogeneous FRET HTRF receptor–ligand competition assay measuring the inhibition of the IL-33–sST2 interaction by scFvs or antibodies; both purified.

Sequences of proteins named here, by UniProt entry; tags and fusion partners are left off. A change or cut given only in a name is not applied to a line headed by its entry. A line that says so, or that is headed by a name, gives the form on record, which may keep a tag or linker.
soluble serum stimulated 2 (sST2), the truncated, soluble form of ST2 (Q01638, form named): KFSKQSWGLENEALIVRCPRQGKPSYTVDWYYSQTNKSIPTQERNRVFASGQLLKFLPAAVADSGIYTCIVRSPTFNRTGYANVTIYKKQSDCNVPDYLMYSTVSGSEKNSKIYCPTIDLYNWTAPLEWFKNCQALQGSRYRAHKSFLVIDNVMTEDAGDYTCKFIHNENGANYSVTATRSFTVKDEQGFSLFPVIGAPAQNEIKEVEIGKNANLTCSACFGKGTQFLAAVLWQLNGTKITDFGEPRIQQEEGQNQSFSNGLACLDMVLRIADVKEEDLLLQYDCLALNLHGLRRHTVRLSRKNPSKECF

These are yes or no findings as the source states them, for the method shown. Some results given as binding are weak or reduced against the parent protein; the word gives no strength.

These results are taken from article PMC10276851, “Tozorakimab (MEDI3506): an anti-IL-33 antibody that inhibits IL-33 signalling via ST2 and RAGE/EGFR to reduce inflammation and epithelial dysfunction” (Scientific Reports, 2023).

B1: reduced interleukin-33 (IL-33^red), recombinant human, residues 112–270 (ligand, UniProt O95760 112-270, looked up)
chain: SITGISPITEYLASLSTYNDQSITFALEDESYEIYVEDLKKDEKKDKVLLSYYESQHPSNESGDGVDGKMLMVTLSPTKDFWLHANNKEHSVELHKCEKPLPDQAFFVLHNMHSNCVSFECKTDPGVFIGVKDNHLALIKVDSSENLCTENILFKLSET
notes: interleukin-33, human, residues 112–270, reduced form (free cysteines); Other assays used a biotinylated Avi-tag histidine-tag form or an N-terminally tagged form; also called wild-type IL-33; source: recombinant
For the molecule B1, the binding entry is given as “binds”.
